Source: patent US4670265A, “Aloe emodin and other anthraquinones and anthraquinone-like compounds from plants virucidal against herpes simplex viruses” (priority 1984, dated 1987)
At least one read-out could not be matched to a standard name with certainty.

System: HSV-1 (KOS strain)
Experiment: Plaque Reduction Assay (PRA) for anti-viral activity, HSV-1
Format: cell-based, herpes simplex virus type 1 (KOS strain)
Conditions: dilution 10^-2, 15 min, 37° C.
Description: The extract has a direct virucidal effect on HSV under the standardly accepted assay conditions employed. This effect is demonstrable by mixing the test extract directly with HSV and incubating the mixture for 15 minutes at 37° C., then diluting the mixture and assaying for the amount of viable HSV capable of producing plaques in an in vitro cell culture system. A plaque is defined as a visible, localized destruction of cells in culture produced by a single infectious virus particle or plaque forming unit and is the most sensitive assay in virology for quantitating viruses. Depending on the type and concentration of the test extract used, complete inactivation of HSV plaque forming units can be achieved in 15 minutes or less.
Material for testing was obtained from Aloe plants using either whole leaf homogenates, sap or gel. Other materials for testing included dried leaves of Aloe vera and Senna, dried bark of Frangula and Cascara, dried rhizomes of Rhubarb and a commercial preparation of Aloin. All samples were tested for anti-viral activity by a Plaque Reduction Assay (PRA) using monolayer cultures of Vero (African Green Monkey Kidney) cells grown in MEM+5% calf serum. […] After adsorption, the inoculum was removed, a methyl cellulose/MEM overlay medium was added and after three days incubation the number of plaques per dish counted and averaged. […]

SMILES: O=C1c2cccc(O)c2C(=O)c2c(O)cc(CO)cc21 [Aloe emodin, 1,8-dihydroxy-3(hydroxymethyl)anthraquinone]
- percent reduction in the average number of HSV PFU as compared with the control (PRA): 100%
